1 substance from patent US20100143436A1 can be followed below.

The chains behind the UniProt entries cited, without tags or fusion partners. Where a name states a change or a piece, a line headed by the entry shows the natural chain unless it says otherwise.
UniProt P83949: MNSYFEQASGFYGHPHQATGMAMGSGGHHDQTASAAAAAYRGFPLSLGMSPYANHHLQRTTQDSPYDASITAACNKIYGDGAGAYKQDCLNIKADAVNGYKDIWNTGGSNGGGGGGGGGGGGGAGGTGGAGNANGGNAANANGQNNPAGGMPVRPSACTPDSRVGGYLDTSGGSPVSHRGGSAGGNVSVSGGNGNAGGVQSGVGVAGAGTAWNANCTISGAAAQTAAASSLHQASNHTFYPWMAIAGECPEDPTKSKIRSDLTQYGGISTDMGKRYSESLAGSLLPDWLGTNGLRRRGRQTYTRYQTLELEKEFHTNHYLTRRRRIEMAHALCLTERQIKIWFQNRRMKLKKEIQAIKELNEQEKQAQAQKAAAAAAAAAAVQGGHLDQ

This assay concerns the target EGFP-Ubx chimera (Drosophila melanogaster) (UniProt P83949). Kind of assay: co-assembly of two chimeras in one film and fiber, fluorescence imaging (FIGS. 10E and 10F).

No constants are given. Whether binding was seen depends on the method and setting. Some binding calls cover weakened binding; strength is not graded here.

Consider “mCherry-Ubx chimera (from UniProt P83949 1-389)”, for which the binding entry was “binds”.
